From the supplement of paper PMC4604168 (melanoma cell lines)
This is one part of the list. Repeats are few or missing, and single values can be far off.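 The apoptosis fraction was the count of cleaved-PARP antibody-stained nuclei relative to all DNA-stained nuclei, imaged in 1,536-well plates. Screening doses were set so most cells survived, and baseline and induced cleaved-PARP levels vary greatly across cell lines.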

How the values were obtained:
Assay in all cases: cleaved PARP positive nuclei fraction relative to DMSO control; melanoma cells; higher = more apoptosis
Conditions in all cases: library dose: low library concentration; 72 h
MZ2-MEL = tested on: MZ2-MEL
MeWo = tested on: MeWo
RPMI7951 = tested on: RPMI7951
RVH-421 = tested on: RVH-421
SkMel28 = tested on: SkMel28
SkMel2 = tested on: SkMel2
SkMel30 = tested on: SkMel30
SkMel5 = tested on: SkMel5
UACC257 = tested on: UACC257
UACC62 = tested on: UACC62
WM115 = tested on: WM115
WM1716 = tested on: WM1716
WM1745 = tested on: WM1745
WM3526 = tested on: WM3526
WM3619 = tested on: WM3619
WM451Lu = tested on: WM451Lu

Row | Compound | cleaved PARP positive nuclei fraction (MZ2-MEL) | cleaved PARP positive nuclei fraction (MeWo) | cleaved PARP positive nuclei fraction (RPMI7951) | cleaved PARP positive nuclei fraction (RVH-421) | cleaved PARP positive nuclei fraction (SkMel28) | cleaved PARP positive nuclei fraction (SkMel2) | cleaved PARP positive nuclei fraction (SkMel30) | cleaved PARP positive nuclei fraction (SkMel5) | cleaved PARP positive nuclei fraction (UACC257) | cleaved PARP positive nuclei fraction (UACC62) | cleaved PARP positive nuclei fraction (WM115) | cleaved PARP positive nuclei fraction (WM1716) | cleaved PARP positive nuclei fraction (WM1745) | cleaved PARP positive nuclei fraction (WM3526) | cleaved PARP positive nuclei fraction (WM3619) | cleaved PARP positive nuclei fraction (WM451Lu)
1 | Nc1ccn([C@@H]2O[C@H](CO)[C@@H](O)C2(F)F)c(=O)n1 [gemcitabine] + CC1(C)NC(=O)N(c2ccc([N+](=O)[O-])c(C(F)(F)F)c2)C1=O [nilutamide] (first compound 0.0004 µM, partner dose 1 µM) | 87.5% | 42.3% | 51% | 164% | 28.7% | 92.3% | 54.7% | 239% | 83.8% | 145% | 71.9% | 175% | 114% | 49.5% | 122% | 16.6%
2 | CN1CCN(c2ccc3nc(-c4c(N)c5c(F)cccc5[nH]c4=O)[nH]c3c2)CC1 [Dovitinib] + COc1cc(N2CCC(N3CCN(C)CC3)CC2)ccc1Nc1ncc(Cl)c(Nc2ccccc2S(=O)(=O)C(C)C)n1 [NVP-TAE684] (first compound 0.1 µM, partner dose 0.08 µM) | 120% | 36.3% | 94.2% | 167% | 151% | 95.7% | 75.9% | 99.7% | 213% | 179% | 86.8% | 92.3% | 141% | 85.9% | 100% | 171%
3 | Nc1ncn([C@H]2C[C@H](O)[C@@H](CO)O2)c(=O)n1 [decitabine] + O=S(=O)(c1ccccc1)N(CC(F)(F)F)c1ccc(C(O)(C(F)(F)F)C(F)(F)F)cc1 [T0901317] (first compound 0.1 µM, partner dose 1.4 µM) | 57.8% | 40.8% | 175% | 47% | 90.2% | 136% | 31.2% | 191% | 31.7% | 90.2% | 109% | 127% | 104% | 84% | 91.3% | 141%
4 | C=C(c1ccc(C(=O)O)cc1)c1cc2c(cc1C)C(C)(C)CCC2(C)C [Bexarotene] + N#Cc1c(O)c2c(-c3ccc(-c4ccccc4O)cc3)csc2[nH]c1=O [A769662] (first compound 2 µM, partner dose 2 µM) | 108% | 30.1% | 82.4% | 23.4% | 334% | 151% | 63% | 74% | 133% | 114% | 22.1% | 168% | 90.5% | 87.9% | 101% | 76.9%
5 | O=C(O)[C@@H]1[O][Sb](=[O])([O][Sb]2(=[O])[O][C@H]([C@H](O)CO)[C@H](O)[C@H](C(=O)O)[O]2)[O][C@H]([C@H](O)CO)[C@@H]1O (some centres not stated) [stibogluconate] + COc1ccc(-c2ccc3c(N4CCOCC4)nc(N4C[C@@H](C)O[C@@H](C)C4)nc3n2)cc1CO [KU0063794] (first compound 2 µM, partner dose 0.02 µM) | 122% | 63.6% | 72.8% | 144% | 52.5% | 176% | 43.9% | 70.1% | 101% | 121% | 88.8% | 111% | 177% | 157% | 115% | 120%
6 | CNC(=O)c1cc(Oc2ccc(NC(=O)Nc3ccc(Cl)c(C(F)(F)F)c3)cc2)ccn1 [sorafenib] + COC(=O)c1sccc1S(=O)(=O)Nc1ccc(Nc2ccccc2)cc1OC [GSK0660] (first compound 0.4 µM, partner dose 1 µM) | 82.3% | 138% | 83.7% | 88.2% | 136% | 59.3% | 44.1% | 33% | 141% | 131% | 120% | 99.6% | 99.1% | 77.6% | 118% | 56.4%
7 | Nc1nc(F)nc2c1ncn2[C@@H]1O[C@H](CO)[C@@H](O)[C@@H]1O [fludarabine] + Cn1cc(/C=C2\C(=O)Nc3cccnc32)c2ccccc21 [GW441756] (first compound 0.2 µM, partner dose 0.4 µM) | 99.3% | 249% | 93.1% | 72% | 79.4% | 756% | 746% | 125% | 137% | 81.6% | 64.6% | 49.5% | 86.9% | 511% | 67.7% | 397%
8 | Cc1cc(Nc2cc(N3CCN(C)CC3)nc(/C=C/c3ccccc3)n2)n[nH]1 + COC(=O)c1sccc1S(=O)(=O)Nc1ccc(Nc2ccccc2)cc1OC [GSK0660] (first compound 0.04 µM, partner dose 1 µM) | 93.9% | 60.8% | 35.7% | 197% | 122% | 90.2% | 69.7% | 65.9% | 113% | 124% | 91.2% | 52.5% | 91.6% | 146% | 52.4% | 145%
9 | Cn1c(=O)n(-c2ccc(C(C)(C)C#N)cc2)c2c3cc(-c4cnc5ccccc5c4)ccc3ncc21 + Cn1cc(/C=C2\C(=O)Nc3cccnc32)c2ccccc21 [GW441756] (first compound 0.004 µM, partner dose 0.4 µM) | 108% | 59% | 36.3% | 243% | 106% | 15.9% | 21.6% | 80.8% | 95% | 148% | 32.8% | 77.6% | 69% | 34.7% | 66.7% | 60.9%
10 | CNC(=O)c1cc(Oc2ccc(NC(=O)Nc3ccc(Cl)c(C(F)(F)F)c3)cc2)ccn1 [sorafenib] + NC(=O)Nc1cc(-c2cccc(F)c2)sc1C(=O)N[C@H]1CCCNC1 [AZD7762] (first compound 0.4 µM, partner dose 0.02 µM) | 180% | 103% | 209% | 85% | 52.1% | 101% | 140% | 41.6% | 189% | 80.5% | 169% | 210% | 101% | 62.1% | 109% | 136%
11 | O=C(O)[C@@H]1[O][Sb](=[O])([O][Sb]2(=[O])[O][C@H]([C@H](O)CO)[C@H](O)[C@H](C(=O)O)[O]2)[O][C@H]([C@H](O)CO)[C@@H]1O (some centres not stated) [stibogluconate] + O=c1cc(-c2cccc3c2Sc2ccccc2S3)oc(N2CCOCC2)c1 [KU55933] (first compound 2 µM, partner dose 1 µM) | 160% | 63.4% | 30.1% | 17.4% | 52% | 127% | 78.8% | 83.3% | 126% | 91.2% | 257% | 59.9% | 91.3% | 81.8% | 111% | 62.4%
12 | CNC(=O)c1cc(Oc2ccc(NC(=O)Nc3ccc(Cl)c(C(F)(F)F)c3)cc2)ccn1 [sorafenib] + CN(C)S(=O)(=O)c1ccc2c(c1)/C(=C/c1cc3c([nH]1)CCCC3)C(=O)N2 [SU6656] (first compound 0.4 µM, partner dose 0.4 µM) | 137% | 108% | 87.4% | 94.2% | 232% | 59.6% | 67% | 75.5% | 399% | 74.9% | 81.2% | 39.6% | 85.7% | 62.8% | 80.4% | 59.6%
13 | CC(C)C[C@H](NC(=O)[C@H](Cc1ccccc1)NC(=O)c1cnccn1)B(O)O [Bortezomib] + CCCCCCCCCCCC1=C(O)C(=O)C=C(O)C1=O [Embelin] (first compound 0.001 µM, partner dose 1.2 µM) | 99.9% | 83.9% | 68.3% | 68.2% | 64.7% | 81.5% | 146% | 77% | 44.4% | 66.2% | 64.1% | 19.2% | 79% | 71% | 82.3% | 79.8%
14 | CCCS(=O)(=O)Nc1ccc(F)c(C(=O)c2c[nH]c3ncc(Cl)cc23)c1F + O=C(O)C(=O)Nc1sc2c(c1C(=O)O)CCNC2 [TCS401] (first compound 0.08 µM, partner dose 1.66667 µM) | 149% | 77.5% | 97.4% | 122% | 252% | 68.6% | 93.9% | 222% | 90.8% | 304% | 36.3% | 81.6% | 103% | 101% | 90.4% | 67.8%
15 | CC(C)C[C@H](NC(=O)[C@H](Cc1ccccc1)NC(=O)c1cnccn1)B(O)O [Bortezomib] + CC(C)(C)c1cnc(CSc2cnc(NC(=O)C3CCNCC3)s2)o1 [SNS-032] (first compound 0.001 µM, partner dose 0.01 µM) | 202% | 180% | 734% | 185% | 62.5% | 138% | 62.6% | 57.5% | 37.7% | 35.7% | 67.1% | 407% | 145% | 121% | 634% | 48.3%
16 | C[C@@H](Oc1cc(-c2cnn(C3CCNCC3)c2)cnc1N)c1c(Cl)ccc(F)c1Cl [Crizotinib] + CCN(CC)CCCCNc1ncc2cc(-c3cc(OC)cc(OC)c3)c(NC(=O)NC(C)(C)C)nc2n1 [PD173074] (first compound 0.2 µM, partner dose 0.1 µM) | 72.3% | 163% | 67.9% | 136% | 147% | 153% | 172% | 81.3% | 180% | 93.1% | 102% | 177% | 109% | 74.5% | 100% | 109%
17 | CN1CCN(c2ccc3nc(-c4c(N)c5c(F)cccc5[nH]c4=O)[nH]c3c2)CC1 [Dovitinib] + Cc1cc([N+](=O)[O-])ccc1NS(=O)(=O)c1cc(Cl)ccc1Cl [FH535] (first compound 0.1 µM, partner dose 1 µM) | 26.5% | 36.5% | 115% | 157% | 137% | 26.5% | 115% | 84.8% | 73% | 132% | 133% | 149% | 101% | 233% | 73.5% | 140%

Individual results from the list:
Nc1ncn([C@H]2C[C@H](O)[C@@H](CO)O2)c(=O)n1 [decitabine] + O=S(=O)(c1ccccc1)N(CC(F)(F)F)c1ccc(C(O)(C(F)(F)F)C(F)(F)F)cc1 [T0901317] (first compound 0.1 µM, partner dose 1.4 µM) – cleaved PARP positive nuclei fraction (UACC257): 31.7%
CC(C)C[C@H](NC(=O)[C@H](Cc1ccccc1)NC(=O)c1cnccn1)B(O)O [Bortezomib] + CC(C)(C)c1cnc(CSc2cnc(NC(=O)C3CCNCC3)s2)o1 [SNS-032] (first compound 0.001 µM, partner dose 0.01 µM) – cleaved PARP positive nuclei fraction (WM3526): 121%
